PubChem BioAssay AID652243, Drosophila RNAi Screening Center – 2013
The screen tested about 24,000 reagents; below is an unselected part of those with a known target gene and a result. In the full data, 246 (1%) are marked active. 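Plates not normalised; calls are printed but the firefly/Renilla ratio behind them is not deposited; fold cut for lowering reported inconsistently.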 Raw values vary from plate to plate and are shown uncorrected. Entries without a mark were called inactive. Reagent sequences are not shown. Not stated in the record: the amount of reagent.

Purpose: 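Knock-downs that decrease or increase androgen receptor reporter signal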 (primary screen)
System: Drosophila S2R+ cells
Reagents: long dsRNA against Drosophila genes
Time to read-out: 72 h (48 h, then 24 h hormone)
Treatment: synthetic androgen R1881 at 10 nM for 24 h
Read-out: 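Per-well raw luminescence of the androgen-driven firefly reporter and of the Renilla control, two replicates each, without normalisation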
Reading the numbers: firefly reporter light: higher = more light from androgen-responsive reporter; Renilla control light: higher = more constitutive control signal (cell number, transfection)
Active means: 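Across duplicate plates, a knock-down whose log firefly/Renilla ratio shifted a set fold down or up from the GFP/LacZ control mean was a hit; the downward cut appears as both 1.5 and 3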
Calls: active = hit: reporter lowered or raised; inactive = no hit

CG12773 [DRSC18580] showed firefly reporter light, replicate 1 = 81732; firefly reporter light, replicate 2 = 66217; Renilla control light, replicate 1 = 5.47e5; Renilla control light, replicate 2 = 3.48e5.
Knock-down of CG12773 [DRSC24900] gave: firefly reporter light, replicate 1 = 9.85e5; firefly reporter light, replicate 2 = 7.91e5; Renilla control light, replicate 1 = 1.34e6; Renilla control light, replicate 2 = 1.38e6.
CG13258 [DRSC02244] showed firefly reporter light, replicate 1 = 1.70e5; firefly reporter light, replicate 2 = 1.37e5; Renilla control light, replicate 1 = 2.70e6; Renilla control light, replicate 2 = 1.85e6.
With knock-down of Blos3 [DRSC09573], the record shows firefly reporter light, replicate 1 = 4.38e5; firefly reporter light, replicate 2 = 5.14e5; Renilla control light, replicate 1 = 2.49e6; Renilla control light, replicate 2 = 3.65e6.
Against TwdlT [DRSC21540], the entry reads firefly reporter light, replicate 1 = 6.31e5; firefly reporter light, replicate 2 = 6.25e5; Renilla control light, replicate 1 = 2.26e6; Renilla control light, replicate 2 = 1.91e6.
Against CG12316 [DRSC09879], the values are firefly reporter light, replicate 1 = 6.84e5; firefly reporter light, replicate 2 = 8.42e5; Renilla control light, replicate 1 = 1.02e6; Renilla control light, replicate 2 = 1.37e6.
For CG12316 [DRSC27599] the deposit lists firefly reporter light, replicate 1 = 3.96e5; firefly reporter light, replicate 2 = 2.45e5; Renilla control light, replicate 1 = 4.53e5; Renilla control light, replicate 2 = 3.92e5.
Silencing of CG6324 [DRSC19985] resulted in: firefly reporter light, replicate 1 = 2.94e5; firefly reporter light, replicate 2 = 3.08e5; Renilla control light, replicate 1 = 2.19e6; Renilla control light, replicate 2 = 2.60e6.
For vsg [DRSC10219] the deposit lists firefly reporter light, replicate 1 = 2.47e5; firefly reporter light, replicate 2 = 1.56e5; Renilla control light, replicate 1 = 2.90e6; Renilla control light, replicate 2 = 2.01e6.
Depletion of vsg [DRSC25227] gave: firefly reporter light, replicate 1 = 3.35e5; firefly reporter light, replicate 2 = 3.09e5; Renilla control light, replicate 1 = 9.94e5; Renilla control light, replicate 2 = 5.56e5.
After knock-down of CG2145 [DRSC19835], the record shows firefly reporter light, replicate 1 = 1.04e5; firefly reporter light, replicate 2 = 1.18e5; Renilla control light, replicate 1 = 8.08e5; Renilla control light, replicate 2 = 6.46e5.
Knock-down of CG2145 [DRSC27564] resulted in: firefly reporter light, replicate 1 = 3.46e5; firefly reporter light, replicate 2 = 2.49e5; Renilla control light, replicate 1 = 7.52e5; Renilla control light, replicate 2 = 8.44e5.

Just “firefly reporter light, replicate 2”, for 2 of the entries above:
CG13258 [DRSC02244]: 1.37e5
Blos3 [DRSC09573]: 5.14e5
